{"source": "paper PMC6449355", "about": "“A TetR-family transcription factor regulates fatty acid metabolism in the archaeal model organism Sulfolobus acidocaldarius” (Nature Communications, 2019)", "key": {"[1]": {"molecular_target": "T1, FadRSa N37A (Sulfolobus acidocaldarius) (UniProt Q4J9S1)", "T1 sequence (looked up)": "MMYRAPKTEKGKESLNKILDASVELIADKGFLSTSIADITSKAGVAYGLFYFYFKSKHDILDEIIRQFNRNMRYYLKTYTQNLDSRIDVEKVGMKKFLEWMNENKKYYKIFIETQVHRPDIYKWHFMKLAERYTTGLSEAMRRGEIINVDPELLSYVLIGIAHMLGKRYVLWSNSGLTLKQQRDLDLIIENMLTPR", "experiment": "EMSA", "details": "diminished cooperativity of B2 formation; EMSA/DNase I: 20 mM Tris-HCl pH 8.0, 1 mM MgCl2, 0.1 mM DTT, 12.5% glycerol, 50 mM NaCl, 0.4 mM EDTA, 37 C; recombinant protein; residues 1-196; protein details: C-terminal His; label: 32P 5' end"}, "[2]": {"molecular_target": "T2, FadRSa (Sulfolobus acidocaldarius) (UniProt Q4J9S1)", "T2 sequence (looked up)": "T1 sequence (looked up) with A37N", "experiment": "EMSA", "details": "EMSA/DNase I: 20 mM Tris-HCl pH 8.0, 1 mM MgCl2, 0.1 mM DTT, 12.5% glycerol, 50 mM NaCl, 0.4 mM EDTA, 37 C, recombinant protein, residues 1-196, label: 32P 5' end, probe letters rebuilt from the primers and the genome"}}, "note": "Residue numbers refer to the chain shown, from its start. The comparison behind a weaker result is the experiment's own reference, which may not be listed here. Protein sequences can lack the tags named with them. For some assays here: The exact form of at least one protein or probe is not confirmed. For some assays here: At least one verdict was read from the data and is not stated in words by the source.", "data": [{"sequence": "ACTACATAGTCAGTTGATTCTAATGTCAACTTTATAAAGTGGTGT (double strand) [mutated Saci_1123 operator 45-bp]", "values": [{"measurement": "binding result", "setting": "[1]", "result": "binds more weakly"}]}, {"sequence": "ACTTCCTATAAAGGCACCACCTACACTTCTTCCTATTCTAAATGGTATGGACAAAAATAATACTCCTGTCGCAATAAACACAGCCACGTATTGATATACTATTTTAGAGACAGCTATAAGCGTTGAAGTAAATGTTAGTGCAGAAGTGATTACAGTTAGAAGAGCACCAAATGGTACTACTTGAATTAAAGCTGAAACTTCAGGTACTGCATTACTGGCAGTTAATATTGTTTTAACCATTAGATAGAGAGATTGTTCTATGTATAGAATATTGTTTAACCAACTAAAATAGCCGTCCCAGGTAACACCGAGAAGAGAGAGTAATTCCCCAAGGAACAATAGAACACCTAAATATATAGAATTCCATACAACTACGTAAATTGAGTCAGTAATCAGTCTCGGTGCCCATTTTTTTACACCGTATACAGGTACTGGTAATGCGTAAATTGCAGCACCAATAAAATAAGTCAATGACGCTAATAACTGTGAATAAAATAAAAGTTGAAAAGGATTTAGCATTCATGAC (double strand) [Saci_0568 peak fragment]", "values": [{"measurement": "binding result", "setting": "[2]; intermediate affinity (++)", "result": "binds more weakly"}]}, {"sequence": "CCAACTACAGGTCTTAAATACAACATAAATGTCAGTAGTAATGGAAAGGGATTCATATATTACTCTAAACCTGAGAAATTTATAAAACTAGCTTAATATTTGAGATATAATTCTTGATTTGAGTTCGTCCTCAACTTCATAAAACATTGTTTCCAAAATTACCACTCAAGACTTAGAGGAAGTAAGGGAATTATCATAATCGAAAGCCTCCTAAAGCCATTCTAAAGATACGCTACATTCATTTGATTTAATGAACTGACTGTAGAATCAACTATAAATAGCTTATCTCCTCTCTCATCTCCTTCCACAAAGACAGTCAAGACCACATTCAACCTCTTCACCTTCAAAATATTTATTAAATCGAACTTATGATCCTTAACTATCCTATAACCATAGCTTTGCAATAAAATCAACACTTCAGATCTATCGAATTCCTGCGTTACACTGGGTACAACCACCCTTGTACCTATCCTGGAGCCCTCTATTTCATTTAGCGCATCTACTATATTGCCTACTACCT (double strand) [Saci_0229 peak fragment]", "values": [{"measurement": "binding result", "setting": "[2]; intermediate affinity (++)", "result": "binds more weakly"}]}, {"sequence": "CCTTCTTCATCAATATCGCTCAGTACGACTTTACCTCCCATTTCTGAGAACATCTCAGCTATGGCTTTTCCTATACCACTGGATGCTCCTAAAACAACAGCATTCATGCCTTTTACTGAAAAGAGCCTATCAATGTCCATTTTTGTTCAATTTATAATTTATGTTAGCCAAAATATATTTACACTAAGACTATTGAGTGAAGCAAACATCTCCTAGTTGTGCATTTGCTCTTATCCTACTGTTAAGTCATTTGGGATATACATTACTTCCTTATTGGATCCTCCTTGCCAATATAATATGTCTCTTTGGATATCAAAATACCTATGATCATAGCTATTGATGCAATGGTCAAGTTAATGAACCATGAGTTGAGGAGTCCTATGTAGGTAGAAATTGCGAATATTATACTAATGGAAAACCCTCCAACTATAGCACCTCCATTGTAAGTGAAACCAACACCAGTTGTCCTATATTTTTTGCTGAACTGTTCACTGAGGAA (double strand) [Saci_2130 peak fragment]", "values": [{"measurement": "binding result", "setting": "[2]; specific but low affinity (+)", "result": "binds more weakly"}]}, {"sequence": "CTTCACTCCAAATCCTATTAGGAAAGCTGACACTGAACCGACCTTTTAACTACAATGATAGTCGACTCAAAAATCAAGTATAATATAGTCGAAATATGCCCTCTTGAATAAAACCATGAAATATAAATGAGTCTATTCTGATCTGATAAAGTTC (double strand) [Saci_1106 peak 1 fragment]", "values": [{"measurement": "binding result", "setting": "[2]; CoA, no strong abrogation", "result": "binds"}, {"measurement": "binding result", "setting": "[2]; acetyl-CoA, no strong abrogation", "result": "binds"}, {"measurement": "binding result", "setting": "[2]; free fatty acids, no strong abrogation", "result": "binds"}, {"measurement": "binding result", "setting": "[2]; long-chain acyl-CoA, dissociation increases with chain length", "result": "binds more weakly"}]}]}
